{
  "sequences": {"note": "Amino acid sequences for entries named in this document (tags omitted).", "UniProt P35372, whole entry": "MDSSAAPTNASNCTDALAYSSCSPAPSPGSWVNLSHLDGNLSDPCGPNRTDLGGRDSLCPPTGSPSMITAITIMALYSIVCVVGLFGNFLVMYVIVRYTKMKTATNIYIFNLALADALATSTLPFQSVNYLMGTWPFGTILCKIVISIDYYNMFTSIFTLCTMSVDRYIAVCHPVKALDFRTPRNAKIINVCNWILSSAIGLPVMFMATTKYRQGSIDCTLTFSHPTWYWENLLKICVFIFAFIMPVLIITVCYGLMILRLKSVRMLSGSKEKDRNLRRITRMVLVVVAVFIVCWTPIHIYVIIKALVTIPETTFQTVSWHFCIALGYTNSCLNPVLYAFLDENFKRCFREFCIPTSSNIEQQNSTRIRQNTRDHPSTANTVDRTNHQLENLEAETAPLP"},
  "source": "patent US10414718B2",
  "about": "“Dezocine analogue” (priority 2016, dated 2019)",
  "target": "T1, μ opioid receptor (Homo sapiens, UniProt P35372)",
  "T1 construct": "expressed in transfected cells",
  "assay": "FLIPR intracellular calcium signal test, HEK293-μ cells",
  "type": "cell-based",
  "procedure": "Fluorescence imaging plate reader FLIPR was used to detect changes of intracellular calcium signals. EC50 and IC50 values of the compounds were used as indicators to evaluate the activation or inhibition of the compounds on μ, κ, and δ opioid receptors.\nCell lines: HEK293-μ, HEK293-κ and HEK293-δ, stable-transfected cell lines HEK293-μ, HEK293-κ and HEK293-δ; Cell culture media (DMEM, Invitrogen #11965118, 10% fetal bovine serum Invitrogen #10099141, Geneticin Selective Antibiotic (G418) 300 μg/mL, Invitrogen #10131027, Blasticidin-S HCL 2 ug/mL Invitrogen #A1113902)\n1. Cell Seeding (HEK293-μ, HEK293-κ and HEK293-δ Cells)\n1) Preheating medium, pancreatic enzyme, and DPBS in a 37° C. water bath. Aspirating the culture medium from the cell culture flask and washing it with 10 mL DPBS; […]\n3) Suspending the cells with 10-15 mL culture medium in each T150 cm^2 cell culture flask, centrifugating at 800 rpm for 5 minutes, and resuspending the cells with 10 mL culture medium, aspirating 1 mL cell resuspension to be counted with Vi-cell; […]\n4) IC50 test: In FLIPR, successively placing 4× EC80 plate, cell plate, FLIPR tip, running the program and reading the fluorescence value. […]",
  "data": [
    {"smiles": "CC12CCCCCC(Cc3ccc(O)cc31)C2N", "note": "(centres unmarked) [Compound 2, reference compound]", "values": [
      {"measurement": "EC50", "setting": "EC50 (activation) test, read-out: Mu receptor EC50", "value": "≤ 0.1", "unit": "µM"},
      {"measurement": "IC50", "setting": "IC50 (inhibition) test against EC80 of positive agonist, read-out: Mu receptor IC50", "value": "0.1 to 1", "unit": "µM"}
    ]}
  ]
}
